Measurements from the supplement of paper PMC12823440, “Inhibitors supercharge kinase turnover through native proteolytic circuits” (Nature, 2025).
This is one part of the list. Hit calls seldom repeat between salt and free forms of one compound.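 In K562 cells expressing nanoluciferase-fused kinases, luminescence was recorded at 4 h intervals between 2 and 18 h, normalized as percent of control with DMSO at 100% and a positive control at 0%. A significant (2 sigma) signal drop marks a time point as decreased. The authors' rule for a hit is not shown and takes in more than the number of time points.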

Protein sequences, listed by entry. Tags and fused reporters are not part of them. Lines headed by an entry give the natural chain unless they say otherwise; changes in a name come on top.
UniProt Q9UBF8: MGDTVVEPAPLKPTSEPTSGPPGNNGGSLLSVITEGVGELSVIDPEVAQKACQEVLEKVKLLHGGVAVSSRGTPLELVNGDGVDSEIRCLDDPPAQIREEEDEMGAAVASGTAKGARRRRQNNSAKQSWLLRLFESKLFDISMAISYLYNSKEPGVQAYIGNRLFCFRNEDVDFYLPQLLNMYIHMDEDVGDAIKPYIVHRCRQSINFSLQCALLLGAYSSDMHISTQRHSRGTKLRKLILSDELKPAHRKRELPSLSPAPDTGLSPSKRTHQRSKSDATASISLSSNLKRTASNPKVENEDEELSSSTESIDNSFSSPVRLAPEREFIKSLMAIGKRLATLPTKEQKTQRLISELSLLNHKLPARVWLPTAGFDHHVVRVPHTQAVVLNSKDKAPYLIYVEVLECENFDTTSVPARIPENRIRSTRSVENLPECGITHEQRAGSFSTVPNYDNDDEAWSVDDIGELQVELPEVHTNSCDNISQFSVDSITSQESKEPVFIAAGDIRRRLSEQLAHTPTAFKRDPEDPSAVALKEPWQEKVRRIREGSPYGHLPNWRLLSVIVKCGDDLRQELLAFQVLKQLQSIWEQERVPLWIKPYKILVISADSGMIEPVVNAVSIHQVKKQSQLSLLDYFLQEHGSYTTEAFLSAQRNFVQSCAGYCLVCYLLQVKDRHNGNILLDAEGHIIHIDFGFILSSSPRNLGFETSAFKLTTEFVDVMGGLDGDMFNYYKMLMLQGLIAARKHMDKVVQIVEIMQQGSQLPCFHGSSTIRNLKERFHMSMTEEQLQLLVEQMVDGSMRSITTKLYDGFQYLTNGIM
UniProt Q05397, whole entry, looked up: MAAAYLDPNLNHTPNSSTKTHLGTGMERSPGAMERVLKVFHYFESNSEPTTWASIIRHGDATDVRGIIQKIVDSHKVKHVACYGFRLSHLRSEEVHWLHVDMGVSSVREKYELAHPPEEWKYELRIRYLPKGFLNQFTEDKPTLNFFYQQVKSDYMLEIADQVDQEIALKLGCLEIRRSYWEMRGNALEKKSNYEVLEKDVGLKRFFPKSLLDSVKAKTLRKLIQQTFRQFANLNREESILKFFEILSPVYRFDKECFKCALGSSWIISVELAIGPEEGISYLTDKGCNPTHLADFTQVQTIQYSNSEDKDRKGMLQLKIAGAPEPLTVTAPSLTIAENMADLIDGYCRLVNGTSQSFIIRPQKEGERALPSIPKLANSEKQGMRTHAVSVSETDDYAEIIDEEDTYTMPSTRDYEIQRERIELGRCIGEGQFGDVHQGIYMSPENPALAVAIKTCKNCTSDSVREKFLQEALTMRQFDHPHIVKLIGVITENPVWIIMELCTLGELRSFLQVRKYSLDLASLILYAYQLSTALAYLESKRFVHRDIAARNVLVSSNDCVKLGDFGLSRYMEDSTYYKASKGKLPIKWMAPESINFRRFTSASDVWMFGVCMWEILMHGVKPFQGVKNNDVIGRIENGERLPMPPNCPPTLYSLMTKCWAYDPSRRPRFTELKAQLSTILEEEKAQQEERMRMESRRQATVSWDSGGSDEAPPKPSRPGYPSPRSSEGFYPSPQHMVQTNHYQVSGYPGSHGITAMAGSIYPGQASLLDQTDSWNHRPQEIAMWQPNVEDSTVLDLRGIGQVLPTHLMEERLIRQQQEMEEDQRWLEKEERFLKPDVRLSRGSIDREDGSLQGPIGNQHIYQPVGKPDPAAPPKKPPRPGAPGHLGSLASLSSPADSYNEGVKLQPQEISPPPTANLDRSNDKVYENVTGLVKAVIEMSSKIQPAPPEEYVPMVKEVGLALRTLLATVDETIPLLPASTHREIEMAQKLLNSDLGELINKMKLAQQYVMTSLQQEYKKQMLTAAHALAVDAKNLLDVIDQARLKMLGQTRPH
UniProt Q14289, whole entry, looked up: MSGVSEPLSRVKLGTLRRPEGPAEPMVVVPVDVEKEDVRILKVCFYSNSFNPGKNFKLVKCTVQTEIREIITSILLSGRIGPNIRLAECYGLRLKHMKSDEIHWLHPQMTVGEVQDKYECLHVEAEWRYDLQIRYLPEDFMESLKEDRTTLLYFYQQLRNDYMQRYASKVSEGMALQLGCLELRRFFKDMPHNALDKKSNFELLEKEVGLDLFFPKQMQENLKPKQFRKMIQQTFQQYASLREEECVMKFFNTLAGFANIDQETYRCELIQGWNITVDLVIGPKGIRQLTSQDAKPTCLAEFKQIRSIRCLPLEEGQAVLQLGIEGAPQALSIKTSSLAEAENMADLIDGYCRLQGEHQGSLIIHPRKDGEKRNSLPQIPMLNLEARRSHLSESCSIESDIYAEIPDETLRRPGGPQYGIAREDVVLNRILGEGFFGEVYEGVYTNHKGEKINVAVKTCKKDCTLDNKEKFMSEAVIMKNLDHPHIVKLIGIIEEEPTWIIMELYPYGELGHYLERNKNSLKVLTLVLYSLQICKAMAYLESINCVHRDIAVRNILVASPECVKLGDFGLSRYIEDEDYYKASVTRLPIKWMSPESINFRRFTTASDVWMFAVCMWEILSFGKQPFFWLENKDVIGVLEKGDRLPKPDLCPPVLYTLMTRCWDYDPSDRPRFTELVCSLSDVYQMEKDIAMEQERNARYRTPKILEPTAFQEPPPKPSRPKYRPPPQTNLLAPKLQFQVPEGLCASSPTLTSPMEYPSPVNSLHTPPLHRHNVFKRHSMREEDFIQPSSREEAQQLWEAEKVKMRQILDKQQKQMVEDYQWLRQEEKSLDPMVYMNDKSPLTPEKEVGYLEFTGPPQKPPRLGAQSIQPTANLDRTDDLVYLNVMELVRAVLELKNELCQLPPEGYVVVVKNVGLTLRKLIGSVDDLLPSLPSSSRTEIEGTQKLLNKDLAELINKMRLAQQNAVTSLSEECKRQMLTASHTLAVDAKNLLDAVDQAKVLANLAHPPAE
UniProt P07949, whole entry, looked up: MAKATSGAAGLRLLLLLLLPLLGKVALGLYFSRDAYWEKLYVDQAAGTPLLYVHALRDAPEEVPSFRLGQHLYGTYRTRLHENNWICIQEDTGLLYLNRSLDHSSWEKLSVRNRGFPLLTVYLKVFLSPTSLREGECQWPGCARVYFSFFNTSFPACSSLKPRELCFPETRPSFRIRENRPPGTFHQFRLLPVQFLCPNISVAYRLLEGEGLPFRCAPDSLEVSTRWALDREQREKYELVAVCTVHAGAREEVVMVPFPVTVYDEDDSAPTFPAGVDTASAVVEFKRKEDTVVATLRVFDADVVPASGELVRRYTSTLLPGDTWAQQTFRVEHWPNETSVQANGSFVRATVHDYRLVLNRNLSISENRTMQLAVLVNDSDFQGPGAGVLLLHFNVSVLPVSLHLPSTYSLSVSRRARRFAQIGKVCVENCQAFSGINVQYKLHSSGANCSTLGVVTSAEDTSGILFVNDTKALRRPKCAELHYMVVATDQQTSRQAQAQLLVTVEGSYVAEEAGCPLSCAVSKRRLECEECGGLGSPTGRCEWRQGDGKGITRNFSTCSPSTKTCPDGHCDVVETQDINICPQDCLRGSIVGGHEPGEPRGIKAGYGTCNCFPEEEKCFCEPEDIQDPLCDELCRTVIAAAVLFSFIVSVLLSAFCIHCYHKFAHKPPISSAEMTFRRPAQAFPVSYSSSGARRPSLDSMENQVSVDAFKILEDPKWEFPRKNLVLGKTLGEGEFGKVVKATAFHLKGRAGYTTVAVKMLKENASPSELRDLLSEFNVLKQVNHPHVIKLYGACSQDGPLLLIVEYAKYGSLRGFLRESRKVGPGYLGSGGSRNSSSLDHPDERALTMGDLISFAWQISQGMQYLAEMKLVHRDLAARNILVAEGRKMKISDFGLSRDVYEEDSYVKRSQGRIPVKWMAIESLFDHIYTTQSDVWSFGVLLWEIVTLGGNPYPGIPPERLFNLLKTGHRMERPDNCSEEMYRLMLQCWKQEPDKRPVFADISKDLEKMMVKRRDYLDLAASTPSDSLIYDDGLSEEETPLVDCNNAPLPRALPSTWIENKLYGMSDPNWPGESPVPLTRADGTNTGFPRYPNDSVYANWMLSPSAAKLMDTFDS
UniProt P07949, whole entry M918T, looked up: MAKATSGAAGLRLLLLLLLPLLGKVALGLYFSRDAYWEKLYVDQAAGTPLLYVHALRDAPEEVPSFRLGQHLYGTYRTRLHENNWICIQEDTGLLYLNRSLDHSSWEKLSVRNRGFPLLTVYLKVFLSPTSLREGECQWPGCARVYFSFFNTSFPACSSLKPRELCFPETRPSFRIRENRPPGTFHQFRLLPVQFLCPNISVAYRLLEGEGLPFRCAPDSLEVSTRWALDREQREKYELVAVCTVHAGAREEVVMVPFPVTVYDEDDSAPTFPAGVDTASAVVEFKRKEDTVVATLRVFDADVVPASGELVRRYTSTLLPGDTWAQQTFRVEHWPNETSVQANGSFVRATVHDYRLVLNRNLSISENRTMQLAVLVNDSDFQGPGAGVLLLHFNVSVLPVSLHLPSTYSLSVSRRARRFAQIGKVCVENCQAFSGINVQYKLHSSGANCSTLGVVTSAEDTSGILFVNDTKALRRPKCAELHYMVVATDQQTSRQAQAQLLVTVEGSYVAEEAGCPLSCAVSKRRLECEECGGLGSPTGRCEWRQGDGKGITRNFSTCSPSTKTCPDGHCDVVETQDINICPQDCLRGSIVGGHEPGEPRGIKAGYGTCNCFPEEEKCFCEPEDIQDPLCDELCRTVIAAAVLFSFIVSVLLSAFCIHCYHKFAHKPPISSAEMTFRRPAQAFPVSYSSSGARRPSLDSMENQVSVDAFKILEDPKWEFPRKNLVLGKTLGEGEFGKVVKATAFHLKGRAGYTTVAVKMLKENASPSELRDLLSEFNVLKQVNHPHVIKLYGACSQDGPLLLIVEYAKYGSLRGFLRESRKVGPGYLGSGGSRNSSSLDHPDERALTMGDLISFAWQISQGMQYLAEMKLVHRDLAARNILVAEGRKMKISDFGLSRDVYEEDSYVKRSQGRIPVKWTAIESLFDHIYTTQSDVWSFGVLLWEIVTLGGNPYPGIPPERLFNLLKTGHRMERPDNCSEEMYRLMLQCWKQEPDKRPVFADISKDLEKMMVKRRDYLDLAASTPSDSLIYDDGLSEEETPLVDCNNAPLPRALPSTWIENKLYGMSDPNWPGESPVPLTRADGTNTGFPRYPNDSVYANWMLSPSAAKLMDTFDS
UniProt Q9BRS2: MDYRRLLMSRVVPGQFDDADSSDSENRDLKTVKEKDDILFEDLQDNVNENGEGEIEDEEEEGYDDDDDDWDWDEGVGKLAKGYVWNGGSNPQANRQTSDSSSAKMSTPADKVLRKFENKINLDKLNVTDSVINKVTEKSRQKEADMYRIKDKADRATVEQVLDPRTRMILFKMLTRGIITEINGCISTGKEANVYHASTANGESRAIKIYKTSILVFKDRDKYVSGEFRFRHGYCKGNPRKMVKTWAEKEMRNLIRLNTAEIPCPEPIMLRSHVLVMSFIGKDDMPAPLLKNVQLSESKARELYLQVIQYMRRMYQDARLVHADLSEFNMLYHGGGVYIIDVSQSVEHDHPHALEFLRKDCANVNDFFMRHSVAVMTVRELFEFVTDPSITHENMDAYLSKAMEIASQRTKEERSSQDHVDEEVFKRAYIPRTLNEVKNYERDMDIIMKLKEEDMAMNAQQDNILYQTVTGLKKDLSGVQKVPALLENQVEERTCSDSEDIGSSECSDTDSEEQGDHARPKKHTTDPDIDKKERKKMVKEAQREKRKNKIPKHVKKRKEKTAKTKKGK
UniProt Q9NYA1, whole entry: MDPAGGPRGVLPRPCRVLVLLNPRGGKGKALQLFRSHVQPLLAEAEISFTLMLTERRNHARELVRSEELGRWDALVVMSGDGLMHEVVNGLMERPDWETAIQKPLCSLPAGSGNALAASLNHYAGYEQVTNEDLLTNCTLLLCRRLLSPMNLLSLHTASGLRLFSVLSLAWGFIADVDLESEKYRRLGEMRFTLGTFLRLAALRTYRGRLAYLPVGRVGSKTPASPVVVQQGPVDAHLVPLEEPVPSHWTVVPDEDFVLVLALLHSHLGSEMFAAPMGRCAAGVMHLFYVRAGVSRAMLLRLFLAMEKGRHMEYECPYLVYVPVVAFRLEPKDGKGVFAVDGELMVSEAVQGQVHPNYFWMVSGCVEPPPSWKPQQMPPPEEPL
UniProt Q9Y6E0: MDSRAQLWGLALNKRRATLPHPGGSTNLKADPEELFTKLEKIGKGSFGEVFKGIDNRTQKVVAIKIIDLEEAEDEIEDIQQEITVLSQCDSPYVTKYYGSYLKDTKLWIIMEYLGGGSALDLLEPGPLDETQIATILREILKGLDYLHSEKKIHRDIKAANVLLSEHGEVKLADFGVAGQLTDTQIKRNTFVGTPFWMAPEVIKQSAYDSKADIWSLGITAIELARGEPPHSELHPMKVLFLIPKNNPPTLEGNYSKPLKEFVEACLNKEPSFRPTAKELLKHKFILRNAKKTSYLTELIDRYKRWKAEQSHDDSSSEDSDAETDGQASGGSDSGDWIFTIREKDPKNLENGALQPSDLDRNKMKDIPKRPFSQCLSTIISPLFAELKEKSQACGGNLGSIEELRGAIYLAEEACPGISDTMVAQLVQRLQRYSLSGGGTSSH

Legend:
Experiment in all cases: kinase-Nluc reporter destabilization hit call (1 = scored as downregulated) (binary); higher = compound decreases kinase abundance
Settings in all cases: K562; 2-18 h
PDPK1 = PDPK1 (UniProt O15530)
PIK4CA = PIK4CA (UniProt P42356)
PIK4CB = PIK4CB (UniProt Q9UBF8)
PLK1 = PLK1 (UniProt P53350)
PRKAA1 = PRKAA1 (UniProt Q13131)
PRKCA = PRKCA (UniProt P17252)
PTK2 = PTK2 (UniProt Q05397)
PTK2B = PTK2B (UniProt Q14289)
RAF1 = RAF1 (UniProt P04049)
[1] = molecular target: RAF1_S257L (clone: RAF1_mut) (UniProt P04049)
RET = RET (UniProt P07949)
[2] = molecular target: RET_M918T (clone: RET_mut) (UniProt P07949)
RIOK1 = RIOK1 (UniProt Q9BRS2)
RIPK1 = RIPK1 (UniProt Q13546)
RIPK2 = RIPK2 (UniProt O43353)
ROR2 = ROR2 (UniProt Q01974)
RPS6KA1 = RPS6KA1 (UniProt Q15418)
SPHK1 = SPHK1 (UniProt Q9NYA1)
SRC = SRC (UniProt P12931)
STK24 = STK24 (UniProt Q9Y6E0)

Measured: kinase-Nluc reporter destabilization hit call

COc1ccc(OC)c(C2C(C#N)=C(N)Oc3n[nH]c(-c4ccc5ccccc5c4)c32)c1 (stereo not given) (10 µM)
inactive: PDPK1 = 0 | PIK4CA 0 | PIK4CB 0 | PLK1 = 0 | PRKAA1 = 0 | PRKCA 0 | PTK2 = 0 | PTK2B 0 | RAF1 = 0 | [1] 0 | RET 0 | [2] 0 | RIOK1 = 0 | RIPK1 = 0 | RIPK2 = 0 | ROR2 = 0 | RPS6KA1 = 0 | SPHK1 = 0 | SRC 0 | STK24 = 0

C=CC(=O)Nc1cc(C)ccc1Nc1nc(Nc2cc(OC)ncc2C)ncc1C(F)(F)F (10 µM)
inactive: PDPK1 = 0 | PIK4CA 0 | PIK4CB 0 | PLK1 = 0 | PRKAA1 = 0 | PRKCA 0 | PTK2 = 0 | PTK2B 0 | RAF1 = 0 | [1] 0 | RET 0 | [2] 0 | RIOK1 = 0 | RIPK1 = 0 | RIPK2 = 0 | ROR2 = 0 | RPS6KA1 = 0 | SPHK1 = 0 | SRC 0 | STK24 = 0

COc1ccc(Cl)c(Nc2nc3ccccc3nc2NS(=O)(=O)c2cccc(NC(=O)C(C)(C)N)c2)c1 [Pilaralisib] (10 µM)
inactive: PDPK1 = 0 | PIK4CA 0 | PIK4CB 0 | PLK1 = 0 | PRKAA1 = 0 | PRKCA 0 | PTK2 = 0 | PTK2B 0 | RAF1 = 0 | [1] 0 | RET 0 | [2] 0 | RIOK1 = 0 | RIPK1 = 0 | RIPK2 = 0 | ROR2 = 0 | RPS6KA1 = 0 | SPHK1 = 0 | SRC 0 | STK24 = 0

FC(F)(c1ccc2ncccc2c1)c1nnc2ccc(-c3ccncc3)nn12 (10 µM)
inactive: PDPK1 = 0 | PIK4CA 0 | PIK4CB 0 | PLK1 = 0 | PRKAA1 = 0 | PRKCA 0 | PTK2 = 0 | PTK2B 0 | RAF1 = 0 | [1] 0 | RET 0 | [2] 0 | RIOK1 = 0 | RIPK1 = 0 | RIPK2 = 0 | ROR2 = 0 | RPS6KA1 = 0 | SPHK1 = 0 | SRC 0 | STK24 = 0

CNC(=O)c1c(F)cccc1Nc1nc(Nc2cc3c(cc2OC)CCN3C(=O)CN(C)C)nc2[nH]ccc12 (10 µM)
inactive: PDPK1 = 0 | PIK4CA 0 | PIK4CB 0 | PLK1 = 0 | PRKAA1 = 0 | PRKCA 0 | PTK2 = 0 | PTK2B 0 | RAF1 = 0 | [1] 0 | RET 0 | [2] 0 | RIOK1 = 0 | RIPK1 = 0 | RIPK2 = 0 | ROR2 = 0 | RPS6KA1 = 0 | SPHK1 = 0 | SRC 0 | STK24 = 0

c1ccc(-c2[nH]ncc2-c2ccnc3ccccc23)nc1 (10 µM)
inactive: PDPK1 = 0 | PIK4CA 0 | PIK4CB 0 | PLK1 = 0 | PRKAA1 = 0 | PRKCA 0 | PTK2 = 0 | PTK2B 0 | RAF1 = 0 | [1] 0 | RET 0 | [2] 0 | RIOK1 = 0 | RIPK1 = 0 | RIPK2 = 0 | ROR2 = 0 | RPS6KA1 = 0 | SPHK1 = 0 | SRC 0 | STK24 = 0

CN(C)CCSSCCNC(=O)C1CCN(C(=O)CSc2ccc(Cl)cc2)CC1 (10 µM)
inactive: PDPK1 = 0 | PIK4CA 0 | PIK4CB 0 | PLK1 = 0 | PRKAA1 = 0 | PRKCA 0 | PTK2 = 0 | PTK2B 0 | RAF1 = 0 | [1] 0 | RET 0 | [2] 0 | RIOK1 = 0 | RIPK1 = 0 | RIPK2 = 0 | ROR2 = 0 | RPS6KA1 = 0 | SPHK1 = 0 | SRC 0 | STK24 = 0

O=C(Nc1ccc(CN2CCOCC2)cc1)c1ccc(-c2cccc(Cl)c2)o1 (10 µM)
inactive: PDPK1 = 0 | PIK4CA 0 | PIK4CB 0 | PLK1 = 0 | PRKAA1 = 0 | PRKCA 0 | PTK2 = 0 | PTK2B 0 | RAF1 = 0 | [1] 0 | RET 0 | [2] 0 | RIOK1 = 0 | RIPK1 = 0 | RIPK2 = 0 | ROR2 = 0 | RPS6KA1 = 0 | SPHK1 = 0 | SRC 0 | STK24 = 0

S=C(SSC(=S)N1CCOCC1)N1CCOCC1 (10 µM)
inactive: PDPK1 = 0 | PIK4CA 0 | PIK4CB 0 | PLK1 = 0 | PRKAA1 = 0 | PRKCA 0 | PTK2 = 0 | PTK2B 0 | RAF1 = 0 | [1] 0 | RET 0 | [2] 0 | RIOK1 = 0 | RIPK1 = 0 | RIPK2 = 0 | ROR2 = 0 | RPS6KA1 = 0 | SPHK1 = 0 | SRC 0 | STK24 = 0

CN(CC(=O)N(Cc1ccc(C2CCCCC2)cc1)c1ccc(C(=O)NO)cc1)S(=O)(=O)c1c(F)c(F)c(F)c(F)c1F (2.5 µM)
inactive: PDPK1 = 0 | PIK4CA 0 | PIK4CB 0 | PLK1 = 0 | PRKAA1 = 0 | PRKCA 0 | PTK2 = 0 | PTK2B 0 | RAF1 = 0 | [1] 0 | RET 0 | [2] 0 | RIOK1 = 0 | RIPK1 = 0 | RIPK2 = 0 | ROR2 = 0 | RPS6KA1 = 0 | SPHK1 = 0 | SRC 0 | STK24 = 0

Already shown: two of the compounds above.
COc1ccc(Cl)c(Nc2nc3ccccc3nc2NS(=O)(=O)c2cccc(NC(=O)C(C)(C)N)c2)c1 [Pilaralisib] (10 µM)
inactive: PDPK1 = 0 | PIK4CA 0 | PIK4CB 0 | PLK1 = 0 | PRKAA1 = 0 | PRKCA 0 | PTK2 = 0 | PTK2B 0 | RAF1 = 0 | [1] 0 | RET 0 | [2] 0 | RIOK1 = 0 | RIPK1 = 0 | RIPK2 = 0 | ROR2 = 0 | RPS6KA1 = 0 | SPHK1 = 0 | SRC 0 | STK24 = 0

FC(F)(c1ccc2ncccc2c1)c1nnc2ccc(-c3ccncc3)nn12 (10 µM)
inactive: PDPK1 = 0 | PIK4CA 0 | PIK4CB 0 | PLK1 = 0 | PRKAA1 = 0 | PRKCA 0 | PTK2 = 0 | PTK2B 0 | RAF1 = 0 | [1] 0 | RET 0 | [2] 0 | RIOK1 = 0 | RIPK1 = 0 | RIPK2 = 0 | ROR2 = 0 | RPS6KA1 = 0 | SPHK1 = 0 | SRC 0 | STK24 = 0

Going on with the list.

O=C1N[C@@H](Cc2c[nH]c3ccccc23)C(=O)N2CCC[C@@H]12 [Brevianamide F] (10 µM)
inactive: PDPK1 = 0 | PIK4CA 0 | PIK4CB 0 | PLK1 = 0 | PRKAA1 = 0 | PRKCA 0 | PTK2 = 0 | PTK2B 0 | RAF1 = 0 | [1] 0 | RET 0 | [2] 0 | RIOK1 = 0 | RIPK1 = 0 | RIPK2 = 0 | ROR2 = 0 | RPS6KA1 = 0 | SPHK1 = 0 | SRC 0 | STK24 = 0

Cn1nccc1Nc1nccc(-c2ccn([C@H](CO)c3ccc(Cl)c(F)c3)c(=O)c2)n1 [Ravoxertinib] (10 µM)
inactive: PDPK1 = 0 | PIK4CA 0 | PIK4CB 0 | PLK1 = 0 | PRKAA1 = 0 | PRKCA 0 | PTK2 = 0 | PTK2B 0 | RAF1 = 0 | [1] 0 | RET 0 | [2] 0 | RIOK1 = 0 | RIPK1 = 0 | RIPK2 = 0 | ROR2 = 0 | RPS6KA1 = 0 | SPHK1 = 0 | SRC 0 | STK24 = 0

FC(F)c1nc2ccccc2n1-c1nc(N2CCOCC2)nc(N2CCOCC2)n1 (2 µM)
inactive: PDPK1 = 0 | PIK4CA 0 | PIK4CB 0 | PLK1 = 0 | PRKAA1 = 0 | PRKCA 0 | PTK2 = 0 | PTK2B 0 | RAF1 = 0 | [1] 0 | RET 0 | [2] 0 | RIOK1 = 0 | RIPK1 = 0 | RIPK2 = 0 | ROR2 = 0 | RPS6KA1 = 0 | SPHK1 = 0 | SRC 0 | STK24 = 0

Cn1cnc2c(F)c(Nc3ccc(Br)cc3Cl)c(C(=O)NOCCO)cc21 [Selumetinib] (10 µM)
inactive: PDPK1 = 0 | PIK4CA 0 | PIK4CB 0 | PLK1 = 0 | PRKAA1 = 0 | PRKCA 0 | PTK2 = 0 | PTK2B 0 | RAF1 = 0 | [1] 0 | RET 0 | [2] 0 | RIOK1 = 0 | RIPK1 = 0 | RIPK2 = 0 | ROR2 = 0 | RPS6KA1 = 0 | SPHK1 = 0 | SRC 0 | STK24 = 0

COc1cc2ncc(-c3ccccc3)nc2cc1OC [Tyrphostin AG1296] (10 µM)
inactive: PDPK1 = 0 | PIK4CA 0 | PIK4CB 0 | PLK1 = 0 | PRKAA1 = 0 | PRKCA 0 | PTK2 = 0 | PTK2B 0 | RAF1 = 0 | [1] 0 | RET 0 | [2] 0 | RIOK1 = 0 | RIPK1 = 0 | RIPK2 = 0 | ROR2 = 0 | RPS6KA1 = 0 | SPHK1 = 0 | SRC 0 | STK24 = 0

Cc1cc(O)c2c(c1)C(=O)c1cc(O)cc(O)c1C2=O [Emodin] (10 µM)
inactive: PDPK1 = 0 | PIK4CA 0 | PIK4CB 0 | PLK1 = 0 | PRKAA1 = 0 | PRKCA 0 | PTK2 = 0 | PTK2B 0 | RAF1 = 0 | [1] 0 | RET 0 | [2] 0 | RIOK1 = 0 | RIPK1 = 0 | RIPK2 = 0 | ROR2 = 0 | RPS6KA1 = 0 | SPHK1 = 0 | SRC 0 | STK24 = 0

CN1CCC(c2cc(-c3ccncc3)c(-c3ccc(F)cc3)[nH]2)CC1 (10 µM)
inactive: PDPK1 = 0 | PIK4CA 0 | PIK4CB 0 | PLK1 = 0 | PRKAA1 = 0 | PRKCA 0 | PTK2 = 0 | PTK2B 0 | RAF1 = 0 | [1] 0 | RET 0 | [2] 0 | RIOK1 = 0 | RIPK1 = 0 | RIPK2 = 0 | ROR2 = 0 | RPS6KA1 = 0 | SPHK1 = 0 | SRC 0 | STK24 = 0

COc1cc2ncnc(Nc3ccc(Cl)cc3F)c2cc1OC (10 µM)
inactive: PDPK1 = 0 | PIK4CA 0 | PIK4CB 0 | PLK1 = 0 | PRKAA1 = 0 | PRKCA 0 | PTK2 = 0 | PTK2B 0 | RAF1 = 0 | [1] 0 | RET 0 | [2] 0 | RIOK1 = 0 | RIPK1 = 0 | RIPK2 = 0 | ROR2 = 0 | RPS6KA1 = 0 | SPHK1 = 0 | SRC 0 | STK24 = 0
